Data published in the supplement of paper PMC12823440, “Inhibitors supercharge kinase turnover through native proteolytic circuits” (Nature, 2025).
The other results are listed elsewhere or left out. Hit calls seldom repeat between salt and free forms of one compound.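 Kinases, fused to nanoluciferase, were expressed in K562 cells; luminescence was measured every 4 h from 2 to 18 h as percent of control (DMSO = 100%, positive control = 0%). A time point is decreased if signal falls significantly (2 sigma). Hits were called by the authors by a rule that is not shown; the count of time points alone does not decide it.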

By UniProt entry, the sequences of proteins in these tests, tags left out. Where a name states a change or a piece, a line headed by the entry shows the natural chain unless it says otherwise.
UniProt P14616: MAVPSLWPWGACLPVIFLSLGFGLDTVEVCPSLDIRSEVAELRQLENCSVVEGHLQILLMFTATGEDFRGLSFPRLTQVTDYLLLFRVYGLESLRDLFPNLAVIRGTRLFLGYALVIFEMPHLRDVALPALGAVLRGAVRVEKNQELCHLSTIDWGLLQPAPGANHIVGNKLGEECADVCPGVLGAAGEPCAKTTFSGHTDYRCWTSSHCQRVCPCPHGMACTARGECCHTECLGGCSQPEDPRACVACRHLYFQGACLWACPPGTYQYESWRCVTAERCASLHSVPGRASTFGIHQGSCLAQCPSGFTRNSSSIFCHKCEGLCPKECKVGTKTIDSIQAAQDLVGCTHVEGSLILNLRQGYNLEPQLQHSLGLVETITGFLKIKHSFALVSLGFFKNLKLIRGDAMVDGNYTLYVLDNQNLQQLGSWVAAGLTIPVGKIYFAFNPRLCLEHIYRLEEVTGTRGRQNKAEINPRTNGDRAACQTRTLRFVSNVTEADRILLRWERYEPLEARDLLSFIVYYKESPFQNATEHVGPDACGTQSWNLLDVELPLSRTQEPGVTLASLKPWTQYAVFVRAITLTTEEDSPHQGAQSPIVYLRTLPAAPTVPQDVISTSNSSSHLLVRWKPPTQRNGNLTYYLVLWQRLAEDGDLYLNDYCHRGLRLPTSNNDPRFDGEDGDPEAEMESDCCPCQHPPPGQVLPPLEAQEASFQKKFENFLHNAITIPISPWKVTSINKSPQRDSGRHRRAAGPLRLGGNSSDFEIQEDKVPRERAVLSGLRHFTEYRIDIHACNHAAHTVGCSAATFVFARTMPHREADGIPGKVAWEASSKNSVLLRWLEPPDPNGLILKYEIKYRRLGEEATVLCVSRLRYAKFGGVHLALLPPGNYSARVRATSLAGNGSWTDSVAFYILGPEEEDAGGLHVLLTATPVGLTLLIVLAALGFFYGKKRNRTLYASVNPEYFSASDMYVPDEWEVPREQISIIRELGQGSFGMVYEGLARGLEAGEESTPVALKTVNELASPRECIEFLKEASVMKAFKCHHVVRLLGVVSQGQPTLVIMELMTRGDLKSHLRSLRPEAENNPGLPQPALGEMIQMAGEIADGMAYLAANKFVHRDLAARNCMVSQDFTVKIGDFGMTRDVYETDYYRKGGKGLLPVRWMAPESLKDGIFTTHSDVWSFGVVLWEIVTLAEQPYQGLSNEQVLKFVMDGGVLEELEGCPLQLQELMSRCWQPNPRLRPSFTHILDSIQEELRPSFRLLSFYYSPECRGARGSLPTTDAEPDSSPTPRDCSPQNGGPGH

Target: INSRR (UniProt P14616)
Assay: kinase-Nluc reporter destabilization hit call (1 = scored as downregulated) (binary); higher = compound decreases kinase abundance
Settings: K562; 2-18 h

| SMILES | kinase-Nluc reporter destabilization hit call |
| --- | --- |
| Cc1ccccc1-n1c(Cn2cnc3c(N)ncnc32)nc2cccc(C)c2c1=O (10 µM) | inactive: 0 |
| C=C[C@H]1CN2CC[C@]3(C(=O)Nc4ccccc43)[C@@H]2C[C@@H]1/C(=C\OC)C(=O)OC [Corynoxeine] (2 µM) | inactive: 0 |
| O=C1C=CC[C@@H]2[C@H]3CCCN4CCC[C@@H](CN12)[C@@H]34 [Sophocarpine (monohydrate)] (2.5 µM) | inactive: 0 |
| O=c1ccc2cc(O[C@@H]3O[C@H](CO)[C@@H](O)[C@H](O)[C@H]3O)c(O)cc2o1 [Esculin] (10 µM) | inactive: 0 |
| O=c1[nH]c2ccccc2n1C1CCN(CCCC(c2ccc(F)cc2)c2ccc(F)cc2)CC1 [Pimozide] (2.5 µM) | inactive: 0 |
| C[C@@H]1CC[C@H]2[C@@H](C)C(=O)O[C@@H]3O[C@@]4(C)CC[C@@H]1[C@]32OO4 [Artemisinin] (10 µM) | inactive: 0 |
| COc1ccc2c(c1OC)C(OC)N(C)c1c-2ccc2cc3c(cc12)OCO3 (centres undefined) [Angoline] (10 µM) | inactive: 0 |
| C[C@H]1CC[C@]2(NC1)O[C@H]1C[C@H]3[C@@H]4CC[C@H]5C[C@@H](O[C@@H]6O[C@H](CO)[C@H](O[C@@H]7O[C@H](CO)[C@@H](O)[C@H](O[C@@H]8OC[C@@H](O)[C@H](O)[C@H]8O)[C@H]7O[C@@H]7O[C@H](CO)[C@@H](O)[C@H](O)[C@H]7O)[C@H](O)[C@H]6O)CC[C@]5(C)[C@H]4CC[C@]3(C)[C@H]1[C@@H]2C [Tomatine] (2.5 µM) | inactive: 0 |
| CN(C)C(=O)c1ccc(Cn2c(C(=O)O)cc3c(Br)cc(Sc4ccc(Cl)c(Cl)c4)cc32)cc1 [Rheb inhibitor NR1] (10 µM) | inactive: 0 |
| COc1ccc(/C=C/c2cc(OC)c(OC)c(OC)c2)cc1 (2.5 µM) | inactive: 0 |
| C/C(O)=C(\C#N)C(=O)Nc1cc(Br)ccc1Br (10 µM) | inactive: 0 |
| Cc1n[nH]cc1-c1cc2nc([C@@H]3CC4CCN3CC4)[nH]c(=O)c2s1 [Simurosertib] (2.5 µM) | inactive: 0 |
| O=c1[nH]c2ccccc2n1C1CCN(Cc2ccc(-c3[nH]c4cc5ncnc5cc4nc3-c3ccccc3)cc2)CC1 [AKT inhibitor VIII] (2.5 µM) | inactive: 0 |
| CCOC(=O)c1c(/C(C#N)=C\N)c2ccc(Cl)c(Cl)c2n1C (10 µM) | inactive: 0 |
| O=C(N[C@@H](COc1ccc2[nH]c(=O)[nH]c2c1)c1ccccc1)c1cccn(Cc2ccc(F)c(F)c2)c1=O (2.5 µM) | inactive: 0 |
| CC1=C[C@]23C(=O)[C@@H](C=C(CO)[C@@H](O)[C@]2(O)[C@H]1O)[C@H]1[C@@H](C[C@H]3C)C1(C)C [Ingenol] (10 µM) | inactive: 0 |
| N#CC(C#N)=NNc1cccc(Cl)c1 (2.5 µM) | inactive: 0 |
| CC(=O)c1c(O)c(C)c(O)c(Cc2c(O)c3c(c(C(=O)/C=C/c4ccccc4)c2O)OC(C)(C)C=C3)c1O [Rottlerin] (2 µM) | inactive: 0 |
| CCCS(=O)(=O)Nc1ccc(F)c(-n2cc(-c3cncnc3)c3nc(N(C)C4CCN(CC)CC4)ccc32)c1F (2 µM) | inactive: 0 |
| O=[N+]([O-])/C=C/c1ccc2c(c1)OCO2 (2.5 µM) | inactive: 0 |
| CC(=O)O[C@H]1[C@H]2[C@@H](OC(=O)Cc3ccccc3)[C@@H](C)C[C@]2(OC(C)=O)C(=O)/C(C)=C/[C@@H]2[C@H](CC[C@@]13CO3)C2(C)C [Euphorbiasteroid] (10 µM) | inactive: 0 |
| Cc1[nH]ncc1-c1cc2nc([C@H]3CC4CCN3CC4)[nH]c(=O)c2s1 [(R)-Simurosertib] (10 µM) | inactive: 0 |
| N#CC(C#N)=Cc1ccc(O)c(O)c1 [Tyrphostin 23] (10 µM) | inactive: 0 |
| CC1C(=O)OC2C(O)C34C5OC(=O)C3(OC3OC(=O)C(O)C34C(C(C)(C)C)C5O)C12O (centres undefined) [Ginkgolide C] (10 µM) | inactive: 0 |
| COc1ccc2c(c1)/C(=C/c1cnc[nH]1)C(=O)N2 (2.5 µM) | inactive: 0 |
| C[S+]([O-])/C=C/CCN=C=S (centres undefined) [Sulforaphene] (10 µM) | inactive: 0 |
| N#CC(C#N)=Cc1ccc([N+](=O)[O-])c(O)c1 (10 µM) | inactive: 0 |
| Cn1cc(C2=C(c3cn(C4CCN(Cc5ccccn5)CC4)c4ccccc34)C(=O)NC2=O)c2ccccc21 [Enzastaurin] (10 µM) | inactive: 0 |
| O=C(/C=C/c1ccccc1)OC[C@H]1O[C@@H](O[C@@H]2OC=C[C@H]3[C@H](O)[C@@H]4O[C@]4(CO)[C@@H]23)[C@H](O)[C@@H](O)[C@@H]1O [Picroside I] (10 µM) | inactive: 0 |

2 entries from above, with bars between the fields.
SMILES | kinase-Nluc reporter destabilization hit call
CC1C(=O)OC2C(O)C34C5OC(=O)C3(OC3OC(=O)C(O)C34C(C(C)(C)C)C5O)C12O (centres undefined) [Ginkgolide C] (10 µM) | inactive: 0
O=C(/C=C/c1ccccc1)OC[C@H]1O[C@@H](O[C@@H]2OC=C[C@H]3[C@H](O)[C@@H]4O[C@]4(CO)[C@@H]23)[C@H](O)[C@@H](O)[C@@H]1O [Picroside I] (10 µM) | inactive: 0
